Experimental data reported in paper PMC12363165.
Results are given in words; binding and its absence hold for the method and conditions named. Binding seen in cells or lysates may run through a third protein. Some entries that bind do so weakly or less than the wild type.

Protein sequences, listed by entry. Tags and fused reporters are not part of them. Lines headed by an entry give the natural chain unless they say otherwise; changes in a name come on top. Residues count along the entry.
UniProt P98175: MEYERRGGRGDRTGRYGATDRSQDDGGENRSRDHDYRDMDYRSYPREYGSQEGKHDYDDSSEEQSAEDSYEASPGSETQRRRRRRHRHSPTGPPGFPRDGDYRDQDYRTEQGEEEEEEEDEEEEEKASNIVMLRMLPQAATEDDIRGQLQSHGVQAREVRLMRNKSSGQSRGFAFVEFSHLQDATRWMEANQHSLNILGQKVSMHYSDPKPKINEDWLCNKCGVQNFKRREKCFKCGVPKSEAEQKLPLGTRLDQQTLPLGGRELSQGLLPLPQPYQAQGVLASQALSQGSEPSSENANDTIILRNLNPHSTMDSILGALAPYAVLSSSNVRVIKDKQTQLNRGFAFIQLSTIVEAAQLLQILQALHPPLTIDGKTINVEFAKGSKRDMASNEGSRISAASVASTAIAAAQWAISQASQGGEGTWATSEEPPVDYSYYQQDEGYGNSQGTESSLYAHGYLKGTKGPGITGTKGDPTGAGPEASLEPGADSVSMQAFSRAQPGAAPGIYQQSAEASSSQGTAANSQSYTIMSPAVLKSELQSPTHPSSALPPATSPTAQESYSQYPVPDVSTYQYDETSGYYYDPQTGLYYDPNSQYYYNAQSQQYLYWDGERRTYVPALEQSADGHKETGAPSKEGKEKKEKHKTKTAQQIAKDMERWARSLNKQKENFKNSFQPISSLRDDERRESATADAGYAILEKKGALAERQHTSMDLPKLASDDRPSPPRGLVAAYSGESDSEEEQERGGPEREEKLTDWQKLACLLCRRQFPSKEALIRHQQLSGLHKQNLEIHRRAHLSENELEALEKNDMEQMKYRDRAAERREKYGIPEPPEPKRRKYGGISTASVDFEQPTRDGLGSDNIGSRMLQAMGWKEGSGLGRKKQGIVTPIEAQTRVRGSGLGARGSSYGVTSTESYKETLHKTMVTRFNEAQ
UniProt P05923: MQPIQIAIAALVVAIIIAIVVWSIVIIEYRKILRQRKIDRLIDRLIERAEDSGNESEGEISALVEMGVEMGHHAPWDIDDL
UniProt Q10589, residues 1-161: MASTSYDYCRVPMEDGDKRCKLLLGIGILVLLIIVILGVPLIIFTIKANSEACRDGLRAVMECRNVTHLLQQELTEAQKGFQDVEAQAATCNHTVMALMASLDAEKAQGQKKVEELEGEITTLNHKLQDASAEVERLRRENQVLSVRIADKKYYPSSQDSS

Key:
[1] = biological target: RBM10 in the other NanoBiT fusion combinations (human) (UniProt P98175); test: split reporter; NanoBiT in HEK293T cells co-transfected 1:1 with Vpu and RBM10 LgBiT/SmBiT fusions; luminescence of live cells 48 h after transfection; empty vector as negative control
[2] = biological target: Vpu-V5-APEX2 (HIV-1 viral protein U fused to a V5-APEX2 tag) (HIV-1) (UniProt P05923); test: co-IP; V5-tagged Vpu as bait: HeLa lysate (Pierce IP lysis buffer), anti-V5 magnetic beads 2 h at 4 C; western blot with anti-human RBM10
[3] = biological target: RBM10 fused to SmBiT (pBiT2.1-C-rbm10) (human) (UniProt P98175); test: split reporter; NanoBiT in HEK293T cells co-transfected 1:1 with Vpu and RBM10 LgBiT/SmBiT fusions; luminescence of live cells 48 h after transfection; empty vector as negative control
[4] = biological target: BST-2 (tetherin) of the Vpu-BST-2 binding test of Fig. S4A (UniProt Q10589); test: split reporter; Vpu-BST-2 binding of Fig. S4A; the method is not named for this figure, the Vpu mutants were made as NanoBiT reporter vectors
[5] = biological target: RNA-binding motif protein 10 (RBM10), endogenous (human (endogenous in HeLa)) (UniProt P98175); test: co-IP; RBM10 as bait: lysate in RIPA buffer, pre-incubated with protein A/G beads, anti-RBM10 polyclonal antibody or IgG overnight at 4 C; western blot with anti-V5

Vpu in the other NanoBiT fusion combinations (from UniProt P05923 1-81)
binding [1]: binds

RNA-binding motif protein 10 (RBM10), endogenous (from UniProt P98175 1-930)
binding [2]: binds

Vpu with LgBiT fused to its C-terminus (pBiT1.1-C-vpu) (from UniProt P05923 1-81)
binding [3]: binds | binding [4]: binds

Vpu-V5-APEX2 (HIV-1 viral protein U fused to a V5-APEX2 tag) (from UniProt P05923 1-81)
binding [5]: binds
